PubChem BioAssay AID1259254 – NCATS, 2017

- Assay: 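Finding genes that stop cells copying their DNA twice in one cycle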 (primary screen)
- Cells: human HCT116 colorectal cancer cells
- Reagent: single siRNA against human genes
- Timing: 3 days
- Measurement: 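Nuclei stained with Hoechst and imaged; cell-cycle phase assigned by DNA content; G2 share scaled per plate, non-targeting siRNA 0%, GMNN siRNA 100%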
- Scale: G2 robust z-score: higher = more G2 cells, more excess DNA replication
- Active means: 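An siRNA counts as active if its G2 robust z-score lies at least 5 MADs above the screen median; here such calls match roughly 38% of GMNN control or more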
This is a random part of about 59,000 deposited reagents. Over the whole deposit, about 1,550 (2.6%) were called active. 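G2 share is only a proxy for re-replication; each gene was hit by three separate siRNAs, and active genes were retested.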 The numbers tell different reagents against one gene apart. Not all columns of the deposit are shown. Not given: the amount of reagent.

G2 robust z-score | outcome | gene | reagent no.
0.446 | inactive | RGMB | 1
2.3 | inactive | RGMB | 2
-0.00304 | inactive | RGMB | 3
-1.08 | inactive | SMC3 | 1
-1.34 | inactive | SMC3 | 2
-0.884 | inactive | SMC3 | 3
1.37 | inactive | SPTY2D1 | 1
0.288 | inactive | SPTY2D1 | 2
0.0127 | inactive | SPTY2D1 | 3
9.47 | active | CACNG8 | 1
-0.732 | inactive | CACNG8 | 2
0.097 | inactive | CACNG8 | 3
-0.715 | inactive | NCOA2 | 1
-0.0478 | inactive | NCOA2 | 2
-0.592 | inactive | NCOA2 | 3
1.29 | inactive | RRP1 | 1
-0.259 | inactive | RRP1 | 2
2.27 | inactive | RRP1 | 3
-0.818 | inactive | RNF6 | 1
-0.676 | inactive | RNF6 | 2
-0.343 | inactive | RNF6 | 3
2.49 | inactive | CYFIP1 | 1
-0.19 | inactive | CYFIP1 | 2
1.25 | inactive | CYFIP1 | 3
-0.687 | inactive | MTNR1A | 1
-1.41 | inactive | MTNR1A | 2
0.602 | inactive | MTNR1A | 3
-1.01 | inactive | SPAG9 | 1
-0.252 | inactive | SPAG9 | 2
3.35 | inactive | SPAG9 | 3
0.202 | inactive | ZNF362 | 1
-0.206 | inactive | ZNF362 | 2
-0.647 | inactive | ZNF362 | 3
2.83 | inactive | RD3 | 1
2.04 | inactive | RD3 | 2
2.64 | inactive | RD3 | 3
0.193 | inactive | UHRF2 | 1
-0.638 | inactive | UHRF2 | 2
-0.137 | inactive | UHRF2 | 3
0.255 | inactive | MIIP | 1
-0.994 | inactive | MIIP | 2
2.65 | inactive | MIIP | 3
0.391 | inactive | NDST4 | 1
2.86 | inactive | NDST4 | 2
-0.166 | inactive | NDST4 | 3
0.041 | inactive | PEA15-AS1 | 1
-0.0684 | inactive | PEA15-AS1 | 2
0.858 | inactive | PEA15-AS1 | 3
-0.124 | inactive | CLDN15 | 1
1.04 | inactive | CLDN15 | 2
-0.755 | inactive | CLDN15 | 3
1.03 | inactive | RPL23AP74 | 1
3.36 | inactive | RPL23AP74 | 2
0.86 | inactive | RPL23AP74 | 3

Hits (from the list above):
G2 robust z-score | outcome | gene | reagent no.
9.47 | active | CACNG8 | 1

Additional results follow:
G2 robust z-score | outcome | gene | reagent no.
-0.755 | inactive | COLGALT1 | 1
-0.709 | inactive | COLGALT1 | 2
-1.17 | inactive | COLGALT1 | 3
-1.28 | inactive | ADRA2A | 1
-0.66 | inactive | ADRA2A | 2
5.33 | active | ADRA2A | 3
-0.0717 | inactive | TMEM229B | 1
1.85 | inactive | TMEM229B | 2
-0.142 | inactive | TMEM229B | 3
0.129 | inactive | USP9Y | 1
-0.21 | inactive | USP9Y | 2
-0.416 | inactive | USP9Y | 3
1.06 | inactive | CALHM4 | 1
0.537 | inactive | CALHM4 | 2
-0.338 | inactive | CALHM4 | 3
1.82 | inactive | YY1 | 1
2.77 | inactive | YY1 | 2
1.59 | inactive | YY1 | 3
0.0251 | inactive | RNF217 | 1
-0.469 | inactive | RNF217 | 2
-0.283 | inactive | RNF217 | 3
1.1 | inactive | NPY4R | 1
-0.662 | inactive | NPY4R | 2
-0.931 | inactive | NPY4R | 3
-0.326 | inactive | CLDN9 | 1
1.65 | inactive | CLDN9 | 2
-0.981 | inactive | CLDN9 | 3
0.915 | inactive | DDX24 | 1
1.38 | inactive | DDX24 | 2
7.19 | active | DDX24 | 3
4.55 | inactive | RPL12 | 1
2.64 | inactive | RPL12 | 2
-0.354 | inactive | RPL12 | 3
